Test results reported in PubChem BioAssay AID2685 (National Center for Advancing Translational Sciences (NCATS), 2010).
In all, about 320,000 compounds went through this assay and about 2,100 (0.66%) were called active. The inconclusive results got no clear call from the source; some entries with a clear call stand among them for comparison. Calls come from the whole dose curve; as a rule, active = well fitted inhibition curve with a large enough effect in the signal ratio, with a control signal flat (not every such curve was filed as active); inconclusive = small, poorly fitted or top-dose-only effect, or effect the other way, or a change in a side signal; inactive = flat fitted curve, though single readings scatter; the % refers to the signal ratio. Potencies of inconclusive entries are doubtful fits and often do not repeat.
% is set by controls: 0 for no effect and ±100 for the full control effect; potency is the fitted concentration of half-maximal effect.

Test: qHTS Assay for Lipid Storage Modulators in Drosophila S3 Cells
Settings: BODIPY lipid droplet fluorescence, 18-24 h, cells fed with added oleic acid; lipid storage change, negative = inhibition: at 46.1 µM (top of the series) unless noted
Method in brief: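 Drosophila S3 cells loaded with oleic acid (400 uM, as added) and compounds at several concentrations; lipid droplets imaged by 488-nm laser-scanning cytometry, 500–530 nm intensity and object ratio to cell channel. Percent activity normalized to 20 uM Triacsin C.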
For `Cc1cc(C2(c3ccc(O)c(C)c3)OC(=O)c3ccccc32)ccc1O`, the lipid storage change, negative = inhibition was inconclusive: 1.88%. With `O=C(N=Nc1c(O)n(Cc2ccccc2)c2ccccc12)c1ccc(O)cc1` the lipid storage change, negative = inhibition was inconclusive: 47.3%. With `CCOC(=O)c1c(NC(=O)CSc2nnnn2-c2ccc3c(c2)OCCO3)sc(C)c1C` the Potency was inconclusive: 731 nM [activator, partial curve]. For `O=C(CN1C(=O)NC(Cc2c[nH]c3ccccc23)C1=O)NC1CCCCC1` (stereo not given), the Potency was inconclusive: 1840 nM [activator, full curve]. For `O=C(Cc1ccccc1)NC(NNc1ccccc1)(C(F)(F)F)C(F)(F)F`, the lipid storage change, negative = inhibition was inconclusive: -10.6%. With `Cc1ccc(C)c(NC(=O)c2cc3ccccn3n2)c1` the Potency was inconclusive: 1460 nM [rising, full curve]. In the case of `COc1ccc(S(=O)(=O)N2CCCCCC2)cc1C(=O)NCCc1ccccc1`, the lipid storage change, negative = inhibition is reported as inconclusive: 11.1%. With `CCOC(=O)CNC(=O)CSc1nc(C)cc(C)c1C#N` the lipid storage change, negative = inhibition was inconclusive: 47.1%. With `Cc1cccc(NC(=O)c2ccc([N+](=O)[O-])cc2Cl)n1` the Potency was inconclusive: 580 nM [falling, single point]. In the case of `C=CCn1c(C)cc(C(=O)COC(=O)CNC(=O)c2ccccc2)c1C`, the lipid storage change, negative = inhibition is reported as inconclusive: 3.8%. For `COC(=O)CN(n1cnnc1)S(=O)(=O)c1ccc(C)cc1`, the Potency was inconclusive: 58 nM [falling, full curve, poor fit]. For `Cn1nnnc1SCC(=O)Nc1ccccc1[N+](=O)[O-]`, the lipid storage change, negative = inhibition was inconclusive: 0.103%. With `Cc1ccc(S(=O)(=O)NCc2ccccc2)cc1C(=O)N1CCCC(C(F)(F)F)C1` (stereo not given) the lipid storage change, negative = inhibition was “inconclusive”. In the case of `O=C(Nc1ccc(Oc2nnc(-c3ccccc3)c3ccccc23)cc1)c1ccccc1`, the lipid storage change, negative = inhibition is reported as inconclusive: 13.7%. For `COc1ccc(C(=O)COC(=O)CCc2nc3ccccc3[nH]c2=O)cc1Br`, the lipid storage change, negative = inhibition was inconclusive: -11.9%. For `CCOC(=O)c1cnc(N)nc1C(F)(F)F`, the lipid storage change, negative = inhibition was inconclusive: 16.9%. In the case of `Cc1cc2cccc(C)c2nc1SCC(=O)N(C)c1nc(-c2ccccc2)cs1`, the lipid storage change, negative = inhibition is reported as inconclusive: 34.3%. In the case of `CCNC(=O)CN1C(=O)NC2(CCOc3ccccc32)C1=O` (stereo not given), the Potency is reported as inconclusive: 6510 nM [falling, single point]. For `CCOC(=O)c1c(C)[nH]c(C(=O)COC(=O)COc2ccc(OC)cc2)c1C`, the Potency was inconclusive: 2590 nM [activator, partial curve, poor fit]. With `Cc1nc2ccccc2c(=O)n1-c1cccc(NC(=O)c2cccs2)c1` the lipid storage change, negative = inhibition was inconclusive: -54.6%. With `CC1C/C(=C\c2cccnc2)C(=O)/C(=C/c2cccnc2)C1` (stereo not given) the Potency was active: 5170 nM. In the case of `CC(=O)Nc1cccc(OCC(=O)Nc2ccc(F)cc2)c1`, the lipid storage change, negative = inhibition is reported as inconclusive: 13.9%. For `O=C(NCCN1CCOCC1)c1ccc([N+](=O)[O-])cc1[N+](=O)[O-]`, the lipid storage change, negative = inhibition was inconclusive: 12.8%. With `COc1cc([N+](=O)[O-])ccc1NC(=O)CCCOc1cccc(C)c1` the lipid storage change, negative = inhibition was inconclusive: -66.6%. With `Cn1c(/C=N/O)nc2ccccc21` the lipid storage change, negative = inhibition was inconclusive: -4.79%. With `Oc1ccc2ccccc2c1C=Nc1cc(C(F)(F)F)ccc1N1CCCC1` the Potency was inconclusive: 23100 nM [falling, single point]. With `Cc1ccc(NC(=O)c2onc(C)c2Cl)cc1` the lipid storage change, negative = inhibition was inconclusive: 4.57%. For `COc1ccc(CNC(=O)c2cc(C(=O)C3CC3)c[nH]2)cc1`, the Potency was inconclusive: 130 nM [activator, single point]. In the case of `CCC(C)n1cnc2c(=O)oc3ccccc3c21` (stereo not given), the lipid storage change, negative = inhibition is reported as inconclusive: 0.169%. With `CC(NC(=O)NC(=O)c1ccc(Cl)cc1Cl)C1CC1` (stereo not given) the lipid storage change, negative = inhibition was inconclusive: 5.9%. In the case of `CC1CCc2c(sc(NC(=O)c3ccc(-c4ccccc4[N+](=O)[O-])o3)c2C#N)C1` (stereo not given), the lipid storage change, negative = inhibition is reported as inconclusive: -102%. In the case of `CN(C)C(=O)NC1c2ccccc2-c2ccccc21`, the lipid storage change, negative = inhibition is reported as inconclusive: 28.2%. With `CCc1ccc(N2CC(C(=O)N3CCN(c4ccccn4)CC3)CC2=O)cc1` (stereo not given) the lipid storage change, negative = inhibition was inconclusive: 39%. In the case of `COc1ccc(CNC(=O)CN(c2ccc(OC)cc2)S(=O)(=O)c2c(C)[nH]c(=O)[nH]c2=O)cc1`, the lipid storage change, negative = inhibition is reported as inconclusive: 16.6%. For `Cc1ccc(-n2c(-c3ccco3)nc3c(cnn3-c3ccc(C)cc3)c2=O)cc1`, the Potency was inconclusive: 2590 nM [falling, full curve]. In the case of `CC1(C)CC(NC(=O)C23CCC(C)(C(=O)C2)C3(C)C)CC(C)(C)N1` (stereo not given), the lipid storage change, negative = inhibition is reported as inconclusive: -7.44%. For `CC(OC(=O)c1ccc2c(=O)n3c(nc2c1)CCCCC3)C(=O)Nc1ncc(Cl)cc1Cl` (stereo not given), the lipid storage change, negative = inhibition was inconclusive: -1.95%. With `C=CCN1C(=Nc2ccccc2)SC/C1=C\C(=O)OC` the lipid storage change, negative = inhibition was inconclusive: 11.5%. With `FC(F)(F)c1nnc2c(Sc3ccccn3)nc3ccccc3n12` the lipid storage change, negative = inhibition was inconclusive: -22.4%. In the case of `O=C(c1sc2ccccc2c1Cl)N1CCN(c2ccccn2)CC1`, the lipid storage change, negative = inhibition is reported as inconclusive: 16.4%. With `CCS(=O)(=O)c1cc([N+](=O)[O-])c(Sc2ccccc2NC(C)=O)s1` the Potency was inconclusive: 29100 nM [cytotoxic, single point]. For `Cc1cc(C)nc(N/N=C/C(Cl)=C/c2ccccc2)n1`, the Potency was inconclusive: 9200 nM [rising, partial curve]. In the case of `O=C(N/N=C/c1ccco1)c1ccccc1OCc1ccc(Br)cc1`, the Potency is reported as inconclusive: 2910 nM [activator, partial curve]. For `Cc1c(C(=S)Nc2ccccc2)cnn1-c1ccc([N+](=O)[O-])cc1`, the lipid storage change, negative = inhibition was inconclusive: -24%. For `CCNS(=O)(=O)c1ccc(OC)c(C(=O)NC2CCCCC2)c1`, the lipid storage change, negative = inhibition was inconclusive: -38.3%. For `Cc1sc2nc(CSC(C)C(=O)N(C)CC(=O)Nc3ccccc3C(F)(F)F)[nH]c(=O)c2c1C` (stereo not given), the lipid storage change, negative = inhibition was inconclusive: 33.4%. With `COc1ccc(NS(=O)(=O)c2ccc(NC(C)=O)cc2)cc1OC` the Potency was inconclusive: 14600 nM [falling, single point]. In the case of `CCC(O)CC(C(=O)NNc1ccccc1)C(=O)NNc1ccccc1` (stereo not given), the lipid storage change, negative = inhibition is reported as inconclusive: 7.31%. In the case of `COc1cc(/C=N/NC(=O)CCN2CCN(C)CC2)cc2c1OCO2`, the Potency is reported as inconclusive: 3260 nM [falling, partial curve]. In the case of `CCC(=O)N/N=C/c1ccc(-c2ccc(Cl)cc2)o1`, the Potency is reported as inconclusive: 103 nM [falling, full curve, poor fit].
